Results reported in PubChem BioAssay AID1671190 (National Center for Advancing Translational Sciences (NCATS), 2021).
Screen size: about 580,000 compounds; about 6,100 (1.1%) were called active. Inconclusive results, whose numbers are uncertain, are shown with a selection of clear calls. The call rests on the fitted dose curve; in most records, active means well fitted inhibition curve with a large enough effect; inconclusive means small, poorly fitted or top-dose-only effect, or another doubt; inactive means no such curve, though single readings can be large or run the other way. A potency beside an inconclusive call is a rough fit, not a confirmed value.

The chains behind the UniProt entries cited, without tags or fusion partners. Where a name states a change or a piece, a line headed by the entry shows the natural chain unless it says otherwise.
UniProt P18054: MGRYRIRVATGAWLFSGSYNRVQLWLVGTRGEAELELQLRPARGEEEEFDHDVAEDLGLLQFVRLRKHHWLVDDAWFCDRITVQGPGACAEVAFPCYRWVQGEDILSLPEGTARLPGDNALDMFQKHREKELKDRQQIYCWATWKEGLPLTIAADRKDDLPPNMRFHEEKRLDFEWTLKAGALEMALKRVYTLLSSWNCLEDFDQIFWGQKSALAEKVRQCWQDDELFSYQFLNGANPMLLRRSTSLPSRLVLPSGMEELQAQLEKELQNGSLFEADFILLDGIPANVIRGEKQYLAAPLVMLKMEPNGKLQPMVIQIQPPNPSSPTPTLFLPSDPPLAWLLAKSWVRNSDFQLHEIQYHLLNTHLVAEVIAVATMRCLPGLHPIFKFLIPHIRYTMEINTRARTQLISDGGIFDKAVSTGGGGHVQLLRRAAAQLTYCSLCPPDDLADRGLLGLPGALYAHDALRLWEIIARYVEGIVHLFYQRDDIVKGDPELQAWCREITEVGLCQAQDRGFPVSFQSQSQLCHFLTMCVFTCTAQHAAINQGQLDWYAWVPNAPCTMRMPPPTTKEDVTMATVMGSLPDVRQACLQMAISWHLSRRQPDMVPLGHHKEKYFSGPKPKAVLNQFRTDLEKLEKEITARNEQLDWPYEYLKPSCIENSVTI

Target: Polyunsaturated fatty acid lipoxygenase ALOX12 (Homo sapiens) (UniProt P18054)
Test: Primary qHTS assay for inhibitors of human arachidonate 12S-lipoxygenase (ALOX12): Round 2
Settings: purified 12hLO, xylenol orange hydroperoxide absorbance; activity change, negative = inhibition: at 108 µM (top of the series) unless noted
How it was run: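 Hydroperoxide product was detected by ferrous iron/xylenol orange as the 573 to 405 nm absorbance ratio. Arachidonic acid at 40 uM (final) was turned over for 30 min at room temperature by 150 nM human 12hLO, pH 7.0 Hepes buffer, after 15 min compound preincubation.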
On the % scale 0 is the no-effect control and ±100 the full control effect; potency means the concentration at half of the fitted maximal effect.

Structure (SMILES)	Potency	activity change, negative = inhibition
Cc1c(Cl)cccc1NC(=O)c1cccc(NC(=O)N2CCSc3ncccc32)c1	inconclusive: 141 µM [inhibitor, partial curve, poor fit]	
COc1ccc(/C=N\NC(=O)c2ccccc2Br)cc1COc1c(F)c(F)cc(F)c1F	inactive	
Fc1ccc(C2Cn3cnc(-c4nc(-c5cccs5)no4)c3CO2)cc1 (configuration not stated)	inconclusive: 89.1 µM [inhibitor, single point]	
O=C(COc1ccc(Br)cc1)N(Cc1ccccc1)c1ccccn1	inconclusive: 3.55 µM [inhibitor, full curve, poor fit]	
COCCNC(=O)C1CC(c2cccc(OC)c2)=NO1 (configuration not stated)	inactive	
CN[C@H]1CCc2cc(OC)c(OC)c(OC)c2-c2ccc(N(C)CC(OC)OC)c(=O)cc21	inconclusive: 3.16 µM [inhibitor, partial curve, poor fit]	
COCCN1C(=O)N(C)[C@@H](c2ccccc2)C(C(C)=O)=C1C	inconclusive: 2 µM [inhibitor, full curve, poor fit]	
CC(C)N(C)S(=O)(=O)N(C)CC1COc2ccccc2O1 (configuration not stated)	inactive	
O=C(CC(c1ccc(F)cc1)c1ccco1)N1CCOCC1 (configuration not stated)	inactive	
O=C1NC2(C(=O)Nc3ccc(Br)cc3)CCC(=O)N2c2ccccc21 (configuration not stated)	inactive	
C=CCn1c(SCc2n[nH]c(=S)n2-c2ccccc2)nnc1-c1ccccc1	inconclusive: 56.2 µM [inhibitor, partial curve, poor fit]	
CC(C)N1CCN(c2ccc(OCC3COC(Cn4cncn4)(c4ccc(Cl)cc4Cl)O3)cc2)CC1 (configuration not stated)	inconclusive: 79.4 µM [inhibitor, partial curve, poor fit]	
COc1ccc2ccccc2c1CN1CCN(C(=O)c2ccccc2)CC1	inconclusive: 100 µM [inhibitor, partial curve, poor fit]	
COc1ccc(Cn2c(C3CCN(C(=O)c4cc(Cl)ccc4F)CC3)n[nH]c2=O)cc1	inconclusive: 35.5 µM [inhibitor, partial curve]	
CC(C)c1ccc(NC(=O)c2ccc3c(Cl)c4c(nc3c2)CCC4)cc1	inconclusive: 79.4 µM [inhibitor, partial curve, poor fit]	
O=C(Cc1cscn1)c1ccc(O)cc1O	inconclusive: 15.8 µM [inhibitor, partial curve, poor fit]	
Cc1c(C(=O)NCc2ccco2)oc2c1/C(=N/O)CCC2	inconclusive: 35.5 µM [inhibitor, partial curve, poor fit]	
O=C(Nc1nccs1)c1ccc(-c2ccc([N+](=O)[O-])cc2)o1	inactive	
CCCC(/C=C/c1ccc(OC(C)=O)cc1)=C1/c2ccccc2C(=O)N1c1ccccc1	inconclusive: 79.4 µM [inhibitor, partial curve, poor fit]	
Cc1cccc(/C=C(/C#N)c2nc3ccccc3[nH]2)c1	inactive	
COc1ccc2[nH]cc(CCNc3ncncc3-c3ccccc3OC)c2c1	inconclusive: 56.2 µM [inhibitor, partial curve, poor fit]	

10 entries from above in a different format.

| Structure (SMILES) | Potency | activity change, negative = inhibition |
| --- | --- | --- |
| Cc1c(Cl)cccc1NC(=O)c1cccc(NC(=O)N2CCSc3ncccc32)c1 | inconclusive: 141 µM [inhibitor, partial curve, poor fit] |  |
| Fc1ccc(C2Cn3cnc(-c4nc(-c5cccs5)no4)c3CO2)cc1 (configuration not stated) | inconclusive: 89.1 µM [inhibitor, single point] |  |
| CN[C@H]1CCc2cc(OC)c(OC)c(OC)c2-c2ccc(N(C)CC(OC)OC)c(=O)cc21 | inconclusive: 3.16 µM [inhibitor, partial curve, poor fit] |  |
| COCCN1C(=O)N(C)[C@@H](c2ccccc2)C(C(C)=O)=C1C | inconclusive: 2 µM [inhibitor, full curve, poor fit] |  |
| O=C1NC2(C(=O)Nc3ccc(Br)cc3)CCC(=O)N2c2ccccc21 (configuration not stated) | inactive |  |
| CC(C)N1CCN(c2ccc(OCC3COC(Cn4cncn4)(c4ccc(Cl)cc4Cl)O3)cc2)CC1 (configuration not stated) | inconclusive: 79.4 µM [inhibitor, partial curve, poor fit] |  |
| COc1ccc(Cn2c(C3CCN(C(=O)c4cc(Cl)ccc4F)CC3)n[nH]c2=O)cc1 | inconclusive: 35.5 µM [inhibitor, partial curve] |  |
| Cc1c(C(=O)NCc2ccco2)oc2c1/C(=N/O)CCC2 | inconclusive: 35.5 µM [inhibitor, partial curve, poor fit] |  |
| O=C(Nc1nccs1)c1ccc(-c2ccc([N+](=O)[O-])cc2)o1 | inactive |  |
| Cc1cccc(/C=C(/C#N)c2nc3ccccc3[nH]2)c1 | inactive |  |

The list continues.

Structure (SMILES)	Potency	activity change, negative = inhibition
FC(F)C(F)(F)Oc1cccc(Nc2nccn3c(-c4cccc5cccnc45)cnc23)c1	inconclusive: 39.8 µM [inhibitor, partial curve, poor fit]	
O=C(c1ccc2ccccc2n1)N1CCC2(CC1)CC(Cc1cccc(F)c1)CCO2 (configuration not stated)	inactive	
Cc1nn2c(c1-c1ccccc1OCc1ccccc1)N(Cc1ccccc1O)CCC2	inconclusive: 8.91 µM [inhibitor, full curve, poor fit]	
CN(C)CCNc1oc(-c2ccccc2F)nc1S(=O)(=O)c1ccc2c(c1)OCCO2	inconclusive: 31.6 µM [inhibitor, single point]	
CC(C)c1ccc(/C=C/C(=O)N2CCN(C/C=C/c3ccccc3)CC2)cc1	inactive	
CCCCOc1ccc(-c2nn(-c3ccccc3)cc2C2NC(=O)NC(C)=C2C(=O)OCC)cc1 (configuration not stated)	inconclusive: 56.2 µM [inhibitor, partial curve, poor fit]	
CCOc1ccccc1Oc1c(C)oc2cc(OC(=O)N3CCOCC3)ccc2c1=O	inactive	
O=C(CC(c1ccccc1)(c1ccccc1)c1ccccc1)N[C@@H](Cc1ccccc1)C(=O)O	inactive	
COc1ccc(N2C(=O)CC(Sc3nc4c(cc3C#N)CCC4)C2=O)cc1 (configuration not stated)	inconclusive: 50.1 µM [inhibitor, partial curve, poor fit]	
O=C(CCl)Nc1cccc(S(=O)(=O)N2CCCCCC2)c1	inactive	
O=C1Nc2ccccc2SC1=Cc1ccccc1	inactive	
CC(C)C[C@H]1CN(CCCC[C@H]2CNC(=O)C(=O)N2CCc2ccccc2)C(=O)C(=O)N1CCc1ccccc1	inconclusive: 112 µM [inhibitor, single point]	
Clc1ccc(-c2noc(-c3cc(-c4ccco4)n[nH]3)n2)cc1	inconclusive: 11.2 µM [inhibitor, partial curve, poor fit]	
CCC1(CC)NC(=O)N(CC(=O)N2N=C(c3ccc(Cl)cc3)CC2c2ccco2)C1=O (configuration not stated)		inconclusive: -32.8% [inhibitor]
CN1CCC2(CCC1=O)CN(S(=O)(=O)c1cn(C)cn1)CCN2C (configuration not stated)	inconclusive: 10 µM [inhibitor, full curve]	
CC(=O)N1CCC2(CC1)Oc1ccc(Br)cc1C1CC(c3ccco3)=NN12 (configuration not stated)	inconclusive: 25.1 µM [inhibitor, partial curve, poor fit]	
CCc1ccc(Sc2cc(C(=O)NCc3ccccc3OC)c3ccccc3n2)cc1	inactive	
Cc1cc(Cl)ccc1Nc1ncccc1C(N)=O	inconclusive: 79.4 µM [inhibitor, partial curve, poor fit]	
O=C(COc1ccc2c3c(c(=O)oc2c1)CCCC3)NCc1ccncc1	inactive	
O=C(c1cc2ccccc2oc1=O)N1CCN(c2ccc(N3CCOCC3)nn2)CC1	inconclusive: 112 µM [inhibitor, single point]	
COc1c(Cl)cccc1-c1cn2ccc(C)cc2n1	inconclusive: 112 µM [inhibitor, single point]	
